Measurements reported in PubChem BioAssay AID686943 (Drosophila RNAi Screening Center, 2013)
In all, the deposit lists about 23,000 reagents; this is an unselected part of those that have a named target and a result. 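Extra replicates exist only for a retested subset of genes; insulin dose and duration not given; both raised and lowered dpERK matter.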 Reagents against one gene are numbered here. Names joined by + are all predicted targets of the reagent. Not all columns of the deposit are shown. Not given: the amount of reagent, the time to read-out.

Assay: 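Knockdowns that increase or decrease active ERK after insulin receptor stimulation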 (primary screen)
Cell system: Drosophila S2R+ haemocyte-like cells expressing YFP-tagged ERK (Rolled)
Reagent: long dsRNA against Drosophila genes
Treatment: insulin stimulation versus unstimulated cells; dose and duration not given
Measurement: 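Antibody staining for doubly phosphorylated ERK divided by ERK-YFP signal, as plate z-scores, in insulin-treated and untreated cells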
Direction: replicate 1, z-score of dpERK with insulin: higher = more active ERK per ERK-YFP after insulin

Nepl7 (Neprilysin-like 7)
- replicate 1, z-score of dpERK with insulin: 0.2

Srp68 (Signal recognition particle 68)
- replicate 1, z-score of dpERK with insulin: -0.53

CG6583
- replicate 1, z-score of dpERK with insulin: -0.34

frtz (fritz)
- replicate 1, z-score of dpERK with insulin: -0.47

Cyp4ac2 (Cytochrome P450 4ac2)
- replicate 1, z-score of dpERK with insulin: 0.62

nAChRbeta1 (nicotinic Acetylcholine Receptor beta1) #1
- replicate 1, z-score of dpERK with insulin: 0.11

nAChRbeta1 (nicotinic Acetylcholine Receptor beta1) #2
- replicate 1, z-score of dpERK with insulin: -0.17

CG43322
- replicate 1, z-score of dpERK with insulin: 0.23

Ugt302E1 (UDP-glycosyltransferase family 302 member E1)
- replicate 1, z-score of dpERK with insulin: -0.13

lncRNA:CR31526 (long non-coding RNA:CR31526)
- replicate 1, z-score of dpERK with insulin: 0.51

CG13494
- replicate 1, z-score of dpERK with insulin: 0.15

CG3335
- replicate 1, z-score of dpERK with insulin: -0.38

CG17839 #1
- replicate 1, z-score of dpERK with insulin: 0.05

CG17839 #2
- replicate 1, z-score of dpERK with insulin: -1.46

CG6356
- replicate 1, z-score of dpERK with insulin: 0.76

caly (calypso)
- replicate 1, z-score of dpERK with insulin: 0.2

Nipsnap
- replicate 1, z-score of dpERK with insulin: 0.37

Alg14 (ALG14, UDP-N-acetylglucosaminyltransferase subunit)
- replicate 1, z-score of dpERK with insulin: 0.34

Pdp (Pyruvate dehydrogenase phosphatase)
- replicate 1, z-score of dpERK with insulin: 1.13

CG31975 + ovm
- replicate 1, z-score of dpERK with insulin: -0.82

CG6321
- replicate 1, z-score of dpERK with insulin: 0

CG13083
- replicate 1, z-score of dpERK with insulin: -0.14

CG14913
- replicate 1, z-score of dpERK with insulin: 1.35

Stam (Signal transducing adaptor molecule)
- replicate 1, z-score of dpERK with insulin: 1.14

frma (fra mauro)
- replicate 1, z-score of dpERK with insulin: 0.29

Tango10 (Transport and Golgi organization 10)
- replicate 1, z-score of dpERK with insulin: 1.84

Obp51a (Odorant-binding protein 51a)
- replicate 1, z-score of dpERK with insulin: -0.41

PolA1 (DNA polymerase alpha subunit 1)
- replicate 1, z-score of dpERK with insulin: 1.45

CG15820
- replicate 1, z-score of dpERK with insulin: 0.29

CG12971
- replicate 1, z-score of dpERK with insulin: 0.83

CG17562
- replicate 1, z-score of dpERK with insulin: -0.26

An excerpt of the results above, for reference:
frtz (fritz)
- replicate 1, z-score of dpERK with insulin: -0.47

Cyp4ac2 (Cytochrome P450 4ac2)
- replicate 1, z-score of dpERK with insulin: 0.62

nAChRbeta1 (nicotinic Acetylcholine Receptor beta1) #1
- replicate 1, z-score of dpERK with insulin: 0.11
